The test relates to CAF1 mice, leiomyosarcoma No.2 ip, survival T/C%. As to the kind of experiment: NCI In Vivo Anticancer Drug Screen. Data for tumor model Leiomyosarcoma (No. 2) (intraperitoneal) in CAF1 mice. The conditions noted are these: T/C endpoint: mean survival time, schedule: Q01DX010 (ip), vehicle: saline, higher T/C = longer survival. As for the experimental part:
The antitumor activity of compounds was measured in mice bearing transplantable tumors. Survival or tumor size were measured and the results are expressed as the measurement made in the treated group (T) divided by the measurement made in the vehicle treated control group (C). The tumor model used in this assay is Leiomyosarcoma (No. 2) (intraperitoneal) in CAF1 mice

Each structure is given as a SMILES string. The list does not hold the whole screen: it covers a few groups of compounds. Not every dose and run of a compound is shown. T/C: endpoint of the treated group in % of that of the vehicle group. Some doses have a count of surviving animals in place of a T/C: the source holds a T/C of zero for them, seemingly a mark for toxic or unscored doses. Some doses without a T/C left all or most animals alive at the check, yet need not have been tolerated: survival well below the control is almost never listed, so the zero probably covers shortened survival too. Survivors were counted at the toxicity check, usually on the fifth day, unless a day is given; later deaths do not show. Schedule codes are those of the source, read here as Q, the interval in days (D) or hours (H), X, the number of doses. Some entries were tested several times; the values are given in rising order. Where survival is the endpoint, this PubChem deposit counts one and a half times the control or more as active, and values a quarter to a half above the control carry no call in these data; other NCI protocols may use other cut-offs. Some T/C values carry the count of animals alive at the toxicity check (mostly the fifth day); where neither a count nor a note follows, no animal had died by that day.

These results are taken from PubChem BioAssay AID238 (DTP/NCI, 2004).

Take `Cc1[nH]c(=O)[nH]c(=O)c1N(CCCl)CCCl`: the T/C is, setting by setting: (dose: 0.25 mg/kg/injection) 116 % of control; (dose: 0.5 mg/kg/injection) 144 % of control; (dose: 1.0 mg/kg/injection) 208 % of control; (dose: 2.0 mg/kg/injection) 180 % of control.

Regarding `NC1CCCCC1.O=P(O)(N(CCCl)CCCl)N1CC1`, the T/C runs as follows: (dose: 1.25 mg/kg/injection) 162 % of control; (dose: 2.5 mg/kg/injection) 152 and 154 % of control; (dose: 5.0 mg/kg/injection) 175 [5 of 6 alive] and 260 % of control; (dose: 10.0 mg/kg/injection) 216 [5 of 6 alive] and 231 % of control; (dose: 20.0 mg/kg/injection) 300 % of control.

Regarding `CN(N=O)C(=N)N[N+](=O)[O-]`, the T/C (dose: 8.0 mg/kg/injection) was 125 and 126 % of control; the T/C (dose: 16.0 mg/kg/injection) was 133 and 153 % of control. For the same compound, the survivor count is 6 of 6 (dose: 32.0 mg/kg/injection); 4 of 6 and 6 of 6 (dose: 64.0 mg/kg/injection).

For the compound `CC[C@@H](C)[C@@H]1NC(=O)/C(=C(\C)O)C1=O.c1ccc(CNCCNCc2ccccc2)cc1`, the T/C (dose: 10.0 mg/kg/injection) was 100 % of control, the T/C (dose: 14.0 mg/kg/injection) is 104 % of control, the T/C (dose: 20.0 mg/kg/injection) is 104 % of control and the T/C (dose: 30.0 mg/kg/injection) was 100 % of control.
